Measurements from paper PMC7862700.
This is a selection; strong and weak results do not stand in their true shares. At the low end of the ranking the order means little.

Protein sequences, listed by entry. Tags and fused reporters are not part of them. Lines headed by an entry give the natural chain unless they say otherwise; changes in a name come on top.
UniProt O43186: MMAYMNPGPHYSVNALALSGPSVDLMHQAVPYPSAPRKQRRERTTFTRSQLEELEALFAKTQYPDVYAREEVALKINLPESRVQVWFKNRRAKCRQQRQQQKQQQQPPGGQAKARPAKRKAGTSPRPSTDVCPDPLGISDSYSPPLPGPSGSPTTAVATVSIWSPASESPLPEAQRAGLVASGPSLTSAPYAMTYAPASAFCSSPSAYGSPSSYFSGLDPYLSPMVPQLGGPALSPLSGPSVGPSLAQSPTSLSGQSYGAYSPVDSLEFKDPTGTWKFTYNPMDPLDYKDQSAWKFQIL

These sequences were tested against CRX (UniProt O43186) (assay: DAPPL (digital affinity profiling via proximity ligation, sequencing)). Conditions: 10 mM Tris-HCl pH 7.5, 50 mM NaCl, 1 mM DTT, 4% glycerol, room temperature, 30 min; GST-TFs on glutathione beads, 16-mer random dsDNA library, 0.1% …; high values mean tight binding; double strand, one strand shown; scale: fold enrichment (6-mer frequency, TF over GST control).
Work on ATATCC yielded a binding signal of 1.58.
TTCACA gave a binding signal of 0.958.
CGTCAC was tested, and the binding signal was 0.793.
CTGCGT showed a binding signal of 0.808.
GACTCC showed a binding signal of 1.02.
In the case of GTTACA, the binding signal was 0.912.
Work on CGATGG yielded a binding signal of 1.14.
Work on CACATA yielded a binding signal of 0.97.
AATTTT showed a binding signal of 1.29.
Sequence TTGGCA has a binding signal of 1.12.
Sequence CATCGC has a binding signal of 0.834.
In the case of ACCACA, the binding signal was 0.814.
Sequence TTCCAC has a binding signal of 1.26.
In the case of GGTTTG, the binding signal was 0.866.
TAGATC gave a binding signal of 1.51.
Work on GGATGT yielded a binding signal of 0.828.
TGGACA was tested, and the binding signal was 0.836.
In the case of CATGCC, the binding signal was 0.852.
For CTTCAC, the binding signal was 1.17.
For ATACGG, the binding signal was 0.976.
Work on CCACCC yielded a binding signal of 0.931.
With TATGCC the binding signal was 1.18.
TTTCGT gave a binding signal of 1.43.
Work on CCTGTG yielded a binding signal of 0.809.
With CGCGTT the binding signal was 0.874.
CCACTA showed a binding signal of 1.12.
For TCATCT, the binding signal was 1.5.
With GTGACC the binding signal was 0.829.
In the case of AAGCGG, the binding signal was 1.11.
In the case of GTATAC, the binding signal was 0.952.
TGAATG showed a binding signal of 0.999.
CAATTC showed a binding signal of 1.07.
GATGTT gave a binding signal of 1.08.
ACGTTG gave a binding signal of 0.861.
For ACTGCC, the binding signal was 0.974.
CGCCGG gave a binding signal of 0.639.
Work on AAAGGG yielded a binding signal of 1.08.
Sequence ATTCAC has a binding signal of 1.14.
AACCAC gave a binding signal of 0.979.
